The series can be described thus: general procedure: Fmoc solid-phase peptide synthesis; Rink Amide MBHA (0.4-[…]); DIC/HOAt. The following applies: whole synthesis.
The mark [1] stands for this setting: bicyclic, sequence written open.

Turning to “(β-Ala)-Sar10-A(D-Arg)DC(HyP)LVNPLCL(D-3,3-DPA)P(D-Asp)W(HArg)C”, the “final purity (method not given)” value is 97.91% and the isolated yield is 7.3%. This substance came in with an isolated mass (scale 1.11 g of resin) of 120.0 mg.

Regarding “(β-Ala)-Sar10-A(HArg)D-Ci(HyP)LVNPLCiiLHP(D-Asp)W(HArg)Ciii”, under setting [1], the “final purity (method not given)” value turned out to be 99.2% and the isolated yield was found to be 16.3%. Further, the isolated mass (scale 8.0 g of resin, bicyclic, sequence written open) is 2100 mg.

As for A(HArg)DCPLVNPLCLHPGWTC, under setting [1], the “final purity (method not given)” value is listed as 95.05% and the isolated yield is on record as 16.8%. The substance also showed an isolated mass (scale 1.19 g of resin, bicyclic, sequence written open) of 189.9 mg.

Values taken from patent US11696956B2 (BicycleTx Limited, priority 2017, dated 2023).
